In the supplement of paper PMC10849652:
This is one part of the list.

Protein sequences, listed by entry. Tags and fused reporters are not part of them. Lines headed by an entry give the natural chain unless they say otherwise; changes in a name come on top.
UniProt Q5RKV6, whole entry, looked up: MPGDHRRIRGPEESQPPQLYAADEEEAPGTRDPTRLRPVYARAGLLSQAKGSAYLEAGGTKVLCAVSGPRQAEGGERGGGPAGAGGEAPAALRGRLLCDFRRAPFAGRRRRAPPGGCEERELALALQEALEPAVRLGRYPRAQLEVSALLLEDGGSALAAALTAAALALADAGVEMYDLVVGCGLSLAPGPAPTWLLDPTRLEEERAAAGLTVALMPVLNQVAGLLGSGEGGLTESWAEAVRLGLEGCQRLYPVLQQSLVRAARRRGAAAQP
UniProt Q9NPD3, whole entry, looked up: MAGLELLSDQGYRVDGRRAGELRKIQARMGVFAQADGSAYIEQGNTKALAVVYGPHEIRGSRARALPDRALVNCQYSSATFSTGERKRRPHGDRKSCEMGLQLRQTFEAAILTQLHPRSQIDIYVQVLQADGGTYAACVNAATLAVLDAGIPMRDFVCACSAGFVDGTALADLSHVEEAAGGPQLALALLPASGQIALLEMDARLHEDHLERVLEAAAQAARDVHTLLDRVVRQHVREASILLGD
UniProt Q9UNN5: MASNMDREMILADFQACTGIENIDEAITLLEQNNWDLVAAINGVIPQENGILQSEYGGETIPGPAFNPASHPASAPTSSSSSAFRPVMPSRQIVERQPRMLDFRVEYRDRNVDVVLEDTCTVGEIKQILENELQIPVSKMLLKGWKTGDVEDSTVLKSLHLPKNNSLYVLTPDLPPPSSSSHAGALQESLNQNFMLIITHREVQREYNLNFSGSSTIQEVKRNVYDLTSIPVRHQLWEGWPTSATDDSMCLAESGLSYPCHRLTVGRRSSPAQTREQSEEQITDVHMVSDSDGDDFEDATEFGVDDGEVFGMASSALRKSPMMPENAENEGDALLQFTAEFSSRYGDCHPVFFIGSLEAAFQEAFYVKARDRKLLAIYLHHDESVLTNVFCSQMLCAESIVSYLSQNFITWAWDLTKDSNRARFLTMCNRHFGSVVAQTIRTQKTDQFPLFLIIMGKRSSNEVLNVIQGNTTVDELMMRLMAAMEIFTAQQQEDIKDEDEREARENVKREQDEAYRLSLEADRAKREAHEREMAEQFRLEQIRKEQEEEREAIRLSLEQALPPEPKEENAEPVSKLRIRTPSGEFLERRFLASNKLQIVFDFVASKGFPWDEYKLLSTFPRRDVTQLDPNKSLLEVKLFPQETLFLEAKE
UniProt Q9NQT4, whole entry, looked up: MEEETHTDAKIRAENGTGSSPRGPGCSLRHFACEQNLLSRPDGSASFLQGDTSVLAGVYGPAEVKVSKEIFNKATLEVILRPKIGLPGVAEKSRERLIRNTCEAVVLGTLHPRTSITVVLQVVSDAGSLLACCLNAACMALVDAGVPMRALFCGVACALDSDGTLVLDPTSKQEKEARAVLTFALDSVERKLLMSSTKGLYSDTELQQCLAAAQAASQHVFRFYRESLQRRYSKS
UniProt Q93063: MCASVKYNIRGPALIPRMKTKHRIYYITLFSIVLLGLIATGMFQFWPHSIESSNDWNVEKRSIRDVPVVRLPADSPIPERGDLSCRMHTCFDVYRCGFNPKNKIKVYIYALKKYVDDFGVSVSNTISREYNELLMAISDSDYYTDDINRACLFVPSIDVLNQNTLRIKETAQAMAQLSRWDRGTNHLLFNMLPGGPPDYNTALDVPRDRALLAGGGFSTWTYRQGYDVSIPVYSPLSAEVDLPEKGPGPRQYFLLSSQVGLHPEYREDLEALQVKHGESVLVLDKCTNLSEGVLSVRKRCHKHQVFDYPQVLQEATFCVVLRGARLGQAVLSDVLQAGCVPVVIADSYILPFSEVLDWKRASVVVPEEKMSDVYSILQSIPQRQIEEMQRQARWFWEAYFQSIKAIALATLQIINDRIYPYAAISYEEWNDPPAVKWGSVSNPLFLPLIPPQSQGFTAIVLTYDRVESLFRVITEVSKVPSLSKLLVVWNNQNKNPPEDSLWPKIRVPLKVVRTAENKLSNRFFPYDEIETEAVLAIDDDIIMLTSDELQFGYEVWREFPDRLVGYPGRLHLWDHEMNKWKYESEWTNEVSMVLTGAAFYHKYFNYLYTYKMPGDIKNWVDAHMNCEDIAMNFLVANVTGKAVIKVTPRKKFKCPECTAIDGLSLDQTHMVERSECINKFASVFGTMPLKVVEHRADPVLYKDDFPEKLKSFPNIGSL
UniProt Q96A65: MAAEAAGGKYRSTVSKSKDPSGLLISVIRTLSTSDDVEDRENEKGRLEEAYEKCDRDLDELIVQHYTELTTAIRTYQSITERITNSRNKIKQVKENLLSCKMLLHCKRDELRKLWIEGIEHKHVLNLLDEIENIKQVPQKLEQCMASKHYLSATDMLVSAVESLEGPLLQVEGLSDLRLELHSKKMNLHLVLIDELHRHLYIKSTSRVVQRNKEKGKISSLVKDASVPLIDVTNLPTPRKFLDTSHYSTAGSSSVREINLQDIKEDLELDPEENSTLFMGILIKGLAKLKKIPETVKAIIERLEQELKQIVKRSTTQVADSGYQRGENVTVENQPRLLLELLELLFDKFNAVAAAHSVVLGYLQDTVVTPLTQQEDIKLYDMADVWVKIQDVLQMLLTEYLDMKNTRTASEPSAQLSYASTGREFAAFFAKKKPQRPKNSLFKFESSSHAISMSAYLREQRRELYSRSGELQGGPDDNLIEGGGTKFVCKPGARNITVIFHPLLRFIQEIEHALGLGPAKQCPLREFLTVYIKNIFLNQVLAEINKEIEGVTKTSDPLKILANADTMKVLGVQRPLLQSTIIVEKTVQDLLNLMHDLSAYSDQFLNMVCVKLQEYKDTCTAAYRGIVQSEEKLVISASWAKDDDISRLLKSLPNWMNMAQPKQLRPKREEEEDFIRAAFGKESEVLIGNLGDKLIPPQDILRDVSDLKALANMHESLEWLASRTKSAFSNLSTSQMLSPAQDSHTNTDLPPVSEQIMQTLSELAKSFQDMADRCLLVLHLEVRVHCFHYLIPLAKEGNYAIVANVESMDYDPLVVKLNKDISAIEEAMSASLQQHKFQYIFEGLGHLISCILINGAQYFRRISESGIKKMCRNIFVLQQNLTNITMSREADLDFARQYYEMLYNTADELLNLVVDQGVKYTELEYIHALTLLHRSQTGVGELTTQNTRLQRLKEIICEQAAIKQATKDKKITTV
UniProt Q06265, whole entry, looked up: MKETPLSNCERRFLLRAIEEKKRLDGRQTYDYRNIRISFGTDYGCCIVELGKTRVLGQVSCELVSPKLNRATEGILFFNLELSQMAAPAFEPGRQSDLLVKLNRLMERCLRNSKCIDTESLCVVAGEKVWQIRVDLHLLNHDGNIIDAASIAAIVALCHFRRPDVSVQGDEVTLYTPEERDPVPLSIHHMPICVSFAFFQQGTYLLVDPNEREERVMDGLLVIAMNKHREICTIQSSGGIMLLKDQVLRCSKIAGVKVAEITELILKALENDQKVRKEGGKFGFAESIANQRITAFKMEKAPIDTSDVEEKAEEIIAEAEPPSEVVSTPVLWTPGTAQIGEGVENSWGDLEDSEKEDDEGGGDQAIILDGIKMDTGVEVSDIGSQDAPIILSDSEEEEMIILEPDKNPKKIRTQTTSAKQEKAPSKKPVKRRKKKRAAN
UniProt Q9BPY3: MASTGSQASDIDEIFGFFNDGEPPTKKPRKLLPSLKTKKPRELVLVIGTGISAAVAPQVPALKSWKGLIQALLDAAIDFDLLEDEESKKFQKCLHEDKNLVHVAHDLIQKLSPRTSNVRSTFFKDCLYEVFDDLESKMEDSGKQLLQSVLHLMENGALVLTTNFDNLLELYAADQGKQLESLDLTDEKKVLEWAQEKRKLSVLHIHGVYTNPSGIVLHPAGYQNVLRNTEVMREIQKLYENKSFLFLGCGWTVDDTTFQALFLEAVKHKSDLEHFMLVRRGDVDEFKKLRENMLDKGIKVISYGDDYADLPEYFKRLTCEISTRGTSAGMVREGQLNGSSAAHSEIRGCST
UniProt Q96PL5: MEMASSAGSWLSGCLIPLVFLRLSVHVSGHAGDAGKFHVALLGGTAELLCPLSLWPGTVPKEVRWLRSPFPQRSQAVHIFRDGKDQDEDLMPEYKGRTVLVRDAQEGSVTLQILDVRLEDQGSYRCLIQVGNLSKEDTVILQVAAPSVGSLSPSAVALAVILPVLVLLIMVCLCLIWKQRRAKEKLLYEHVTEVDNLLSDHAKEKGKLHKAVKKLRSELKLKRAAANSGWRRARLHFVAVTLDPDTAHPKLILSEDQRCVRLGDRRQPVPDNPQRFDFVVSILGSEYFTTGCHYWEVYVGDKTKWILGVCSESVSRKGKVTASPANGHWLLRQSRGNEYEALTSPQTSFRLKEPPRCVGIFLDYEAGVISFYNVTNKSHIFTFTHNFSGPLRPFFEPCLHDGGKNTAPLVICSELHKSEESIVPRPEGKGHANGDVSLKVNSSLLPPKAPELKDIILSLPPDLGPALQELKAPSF
UniProt Q7Z2K6: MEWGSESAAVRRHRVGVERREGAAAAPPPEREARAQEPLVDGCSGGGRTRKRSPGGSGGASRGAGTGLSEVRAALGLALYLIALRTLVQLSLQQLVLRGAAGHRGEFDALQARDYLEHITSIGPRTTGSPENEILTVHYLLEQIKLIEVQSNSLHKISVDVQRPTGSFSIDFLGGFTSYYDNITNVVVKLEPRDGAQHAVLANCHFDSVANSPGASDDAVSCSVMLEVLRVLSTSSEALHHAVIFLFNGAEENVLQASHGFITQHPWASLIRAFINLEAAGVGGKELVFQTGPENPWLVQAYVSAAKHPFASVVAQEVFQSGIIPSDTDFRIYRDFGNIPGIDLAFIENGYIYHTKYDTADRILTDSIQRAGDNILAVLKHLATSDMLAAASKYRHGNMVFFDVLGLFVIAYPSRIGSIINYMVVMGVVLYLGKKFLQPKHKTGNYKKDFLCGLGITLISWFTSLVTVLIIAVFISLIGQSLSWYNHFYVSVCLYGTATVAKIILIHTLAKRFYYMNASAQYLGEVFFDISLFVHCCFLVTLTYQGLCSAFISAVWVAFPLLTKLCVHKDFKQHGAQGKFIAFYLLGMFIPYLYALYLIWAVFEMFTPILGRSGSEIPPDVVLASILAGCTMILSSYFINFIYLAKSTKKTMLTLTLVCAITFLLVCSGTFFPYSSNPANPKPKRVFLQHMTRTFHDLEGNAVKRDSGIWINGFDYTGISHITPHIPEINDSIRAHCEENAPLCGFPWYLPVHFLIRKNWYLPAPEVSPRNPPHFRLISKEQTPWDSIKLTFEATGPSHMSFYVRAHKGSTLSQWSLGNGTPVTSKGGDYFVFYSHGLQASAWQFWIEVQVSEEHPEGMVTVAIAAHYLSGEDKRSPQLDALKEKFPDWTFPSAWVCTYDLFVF
UniProt O43414: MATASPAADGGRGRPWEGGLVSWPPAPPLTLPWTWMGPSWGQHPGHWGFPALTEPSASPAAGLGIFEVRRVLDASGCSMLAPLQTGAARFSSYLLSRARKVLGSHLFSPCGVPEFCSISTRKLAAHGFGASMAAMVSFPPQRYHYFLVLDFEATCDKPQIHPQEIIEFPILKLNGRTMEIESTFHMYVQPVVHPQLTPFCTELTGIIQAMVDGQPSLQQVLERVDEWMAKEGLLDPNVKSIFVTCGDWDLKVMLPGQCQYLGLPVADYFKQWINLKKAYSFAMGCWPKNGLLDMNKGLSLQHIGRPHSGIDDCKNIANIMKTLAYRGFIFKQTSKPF
UniProt P16930: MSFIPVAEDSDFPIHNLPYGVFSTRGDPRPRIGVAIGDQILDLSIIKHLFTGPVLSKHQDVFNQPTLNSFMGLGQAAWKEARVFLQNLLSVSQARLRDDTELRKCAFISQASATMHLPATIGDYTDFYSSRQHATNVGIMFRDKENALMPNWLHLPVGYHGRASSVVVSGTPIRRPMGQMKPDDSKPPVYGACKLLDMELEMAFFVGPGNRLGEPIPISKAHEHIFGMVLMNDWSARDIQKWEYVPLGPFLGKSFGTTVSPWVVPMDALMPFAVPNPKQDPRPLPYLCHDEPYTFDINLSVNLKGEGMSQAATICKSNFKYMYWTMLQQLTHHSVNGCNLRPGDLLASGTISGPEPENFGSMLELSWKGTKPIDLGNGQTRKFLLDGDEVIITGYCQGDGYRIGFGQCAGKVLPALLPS
UniProt Q9NRY5: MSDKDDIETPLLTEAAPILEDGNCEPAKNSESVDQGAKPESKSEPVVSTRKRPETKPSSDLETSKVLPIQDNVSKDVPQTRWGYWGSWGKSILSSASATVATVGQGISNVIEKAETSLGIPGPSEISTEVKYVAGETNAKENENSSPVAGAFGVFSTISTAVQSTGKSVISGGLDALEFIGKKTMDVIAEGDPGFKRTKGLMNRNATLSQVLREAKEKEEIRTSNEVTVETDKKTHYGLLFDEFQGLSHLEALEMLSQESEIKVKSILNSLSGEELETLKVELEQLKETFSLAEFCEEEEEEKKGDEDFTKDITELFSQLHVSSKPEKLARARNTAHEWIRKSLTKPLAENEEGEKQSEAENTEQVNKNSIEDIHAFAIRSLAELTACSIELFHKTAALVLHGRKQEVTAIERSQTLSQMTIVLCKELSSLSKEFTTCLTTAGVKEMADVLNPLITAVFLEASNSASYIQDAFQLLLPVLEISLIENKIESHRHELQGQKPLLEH

Columns and labels:
Assay in all cases: log2 fold change, soluble protein after heating vs DMSO (PISA); higher = thermal stabilisation; K562 cells, 10 uM, 30 min; active = over 0.2 and 3.5 SD of the protein, either way, in both replicates (recomputed)
[1] = compound: COC1=CC=C(C=C1)CN2C=CC3=C2C=C(C=C3)C(=O)NO
Outline: (§1)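 Thermal stability values are relative to control samples and come from duplicates. They are expressed as log2 fold changes. For measurement, K562 cells (2×10^6 cells/mL) received 10 μM compound for 30 min, and aliquots were heated for 3 min over 48°C-58°C, pooled, and extracted at 4°C in PBS with 0.5% NP-40. Soluble protein, the supernatant after 21,000xg for 90 min, was quantified by TMTpro 16plex LC-MS/MS with equalised channel sums.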

filanesib = compound: CON(C)C(=O)N1N=C(c2cc(F)ccc2F)S[C@@]1(CCCN)c1ccccc1 [filanesib]
Outline: as §1

zotarolimus = compound: CO[C@H]1C[C@@H]2CC[C@@H](C)[C@@](O)(O2)C(=O)C(=O)N2CCCC[C@H]2C(=O)O[C@H]([C@H](C)C[C@@H]2CC[C@H](n3cnnn3)[C@H](OC)C2)CC(=O)[C@H](C)/C=C(\C)[C@@H](O)[C@@H](OC)C(=O)[C@H](C)C[C@H](C)/C=C/C=C/C=C/1C [zotarolimus]
Outline: as §1

idasanutlin = compound: COc1cc(C(=O)O)ccc1NC(=O)[C@@H]1N[C@@H](CC(C)(C)C)[C@](C#N)(c2ccc(Cl)cc2F)[C@H]1c1cccc(Cl)c1F [idasanutlin]
Outline: as §1

alisertib = compound: COc1cc(Nc2ncc3c(n2)-c2ccc(Cl)cc2C(c2c(F)cccc2OC)=NC3)ccc1C(=O)O [alisertib]
Outline: as §1

[2] = compound: COc1cc2nc(-c3cc(F)ccc3O)nc(N[C@@H]3CNC[C@H]3C(C)(C)O)c2cc1OC
Outline: as §1

gefitinib = compound: COc1cc2ncnc(Nc3ccc(F)c(Cl)c3)c2cc1OCCCN1CCOCC1 [gefitinib]
Outline: as §1

[3] = compound: COc1cccc2cc(-c3nc([C@H]4CC[C@H](C(=O)O)CC4)n4ncnc(N)c34)[nH]c12
Outline: as §1

lapatinib = compound: CS(=O)(=O)CCNCc1ccc(-c2ccc3ncnc(Nc4ccc(OCc5cccc(F)c5)c(Cl)c4)c3c2)o1 [lapatinib]
Outline: as §1

pictilisib = compound: CS(=O)(=O)N1CCN(Cc2cc3nc(-c4cccc5[nH]ncc45)nc(N4CCOCC4)c3s2)CC1 [pictilisib]
Outline: as §1

Target	log2 fold change [1]	log2 fold change (filanesib)	log2 fold change (zotarolimus)	log2 fold change (idasanutlin)	log2 fold change (alisertib)	log2 fold change [2]	log2 fold change (gefitinib)	log2 fold change [3]	log2 fold change (lapatinib)	log2 fold change (pictilisib)
ETHE1 (UniProt O95571)	inactive: 0.018	inactive: 0.008	inactive: -0.02	inactive: -0.035	inactive: 0.034	inactive: 0.059	inactive: 0.025	inactive: 0.033	inactive: -0.016	inactive: -0.106
EXOSC6 (UniProt Q5RKV6)	inactive: -0.062	inactive: -0.035	inactive: -0.006	inactive: -0.009	inactive: -0.04	inactive: -0.08	inactive: -0.013	inactive: 0.038	inactive: 0.035	inactive: 0.031
EXOSC4 (UniProt Q9NPD3)	inactive: -0.034	inactive: -0.016	inactive: -0.024	inactive: -0.029	inactive: -0.125	inactive: -0.053	inactive: -0.001	inactive: 0.053	inactive: 0.118	inactive: -0.051
EXTL3 (UniProt O43909)	inactive: -0.056	inactive: -0.094	inactive: 0.066	inactive: -0.001	inactive: 0.094	inactive: 0.06	inactive: 0.009	inactive: 0.219	inactive: 0.047	inactive: 0.067
FAF2 (UniProt Q96CS3)	inactive: -0.019	inactive: -0.022	inactive: 0.035	inactive: 0.007	inactive: 0.004	inactive: -0.011	inactive: 0.056	inactive: 0.009	inactive: 0.029	inactive: 0.017
EPB41L2 (UniProt O43491)	inactive: 0.022	inactive: 0.056	inactive: -0.01	inactive: -0.028	inactive: -0.014	inactive: 0.007	inactive: 0.054	inactive: -0.004	inactive: 0	inactive: 0.031
FAF1 (UniProt Q9UNN5)	inactive: -0.014	inactive: -0.05	inactive: 0.035	inactive: -0.008	inactive: -0.044	inactive: -0.029	inactive: 0.011	inactive: 0.01	inactive: -0.017	inactive: -0.016
FAM177A1 isoform 2 (UniProt Q8N128)	inactive: -0.072	inactive: -0.145	inactive: -0.041	inactive: -0.02	inactive: 0.013	active: -0.291	inactive: 0.031	inactive: -0.029	inactive: -0.018	inactive: 0
EXOSC5 (UniProt Q9NQT4)	inactive: 0.023	inactive: -0.019	inactive: 0.013	inactive: 0	inactive: -0.036	inactive: -0.001	inactive: 0.006	inactive: 0.009	inactive: -0.041	inactive: 0.018
EXT2 isoform 3 (UniProt Q93063)	inactive: -0.028	inactive: 0.048	inactive: 0.058	inactive: 0.111	inactive: -0.101	inactive: -0.014	inactive: 0.014	inactive: 0.007	inactive: 0.087	inactive: -0.023
EXOC2 (UniProt Q96KP1)	inactive: 0.015	inactive: -0.009	inactive: 0.021	inactive: -0.02	inactive: -0.011	inactive: 0.096	inactive: 0.107	inactive: -0.106	inactive: -0.037	inactive: 0.059
EXOC4 (UniProt Q96A65)	inactive: 0.029	inactive: 0.009	inactive: 0.065	inactive: -0.052	inactive: -0.002	inactive: 0.164	inactive: 0.002	inactive: -0.086	inactive: 0.008	inactive: -0.059
EXOSC9 isoform 2 (UniProt Q06265)	inactive: 0.004	inactive: 0.053	inactive: -0.006	inactive: -0.007	inactive: -0.045	inactive: -0.005	inactive: -0.022	inactive: 0.016	inactive: 0.008	inactive: 0.009
FAM118B (UniProt Q9BPY3)	inactive: 0.028	inactive: -0.196	inactive: 0.011	inactive: -0.034	inactive: -0.049	inactive: 0.017	inactive: 0.031	inactive: 0.129	inactive: 0.018	inactive: 0.099
ERMAP (UniProt Q96PL5)	inactive: -0.039	inactive: 0.138	inactive: -0.068	inactive: 0.026	inactive: 0.045	inactive: 0.083	inactive: 0.035	inactive: 0.015	inactive: -0.008	inactive: 0.091
FADS3 (UniProt Q9Y5Q0)	inactive: -0.067	inactive: -0.151	inactive: -0.062	inactive: 0.007	inactive: 0.005	inactive: -0.036	inactive: 0.04	inactive: 0.168	inactive: 0.097	inactive: 0.168
ERCC3 (UniProt P19447)	inactive: -0.426	inactive: 0.094	inactive: 0.1	inactive: 0.029	inactive: 0.254	inactive: 0.166	inactive: 0.125	inactive: -0.14	inactive: 0.07	inactive: -0.15
ERMP1 (UniProt Q7Z2K6)	inactive: 0.013	inactive: -0.02	inactive: -0.003	inactive: -0.03	inactive: -0.041	inactive: -0.041	inactive: -0.003	inactive: 0.037	inactive: 0.015	inactive: 0.001
F11R (UniProt Q9Y624)	inactive: 0.024	inactive: 0.055	inactive: 0.02	inactive: -0.032	inactive: -0.048	inactive: 0.059	inactive: 0.017	inactive: 0.074	inactive: -0.05	inactive: 0.015
ERI3 (UniProt O43414)	inactive: -0.009	inactive: -0.046	inactive: -0.013	inactive: -0.043	inactive: 0.032	inactive: 0.004	inactive: 0.007	inactive: 0.055	inactive: -0.031	inactive: 0.039
FAH (UniProt P16930)	inactive: -0.013	inactive: -0.018	inactive: 0.059	inactive: -0.03	inactive: -0.019	inactive: -0.025	inactive: -0.026	inactive: 0.093	inactive: -0.034	inactive: -0.028
FAM120A isoform 6 (UniProt Q9NZB2)	inactive: -0.092	inactive: 0.125	inactive: -0.06	inactive: 0.094	inactive: -0.067	inactive: -0.1	inactive: -0.053	inactive: -0.052	inactive: 0.105	inactive: -0.183
FAHD2A (UniProt Q96GK7)	inactive: 0.008	inactive: -0.022	inactive: 0.018	inactive: -0.021	inactive: -0.058	inactive: 0.058	inactive: 0.038	inactive: 0.04	inactive: -0.031	inactive: 0.063
ERVK3-1, A0A0U1RQV1	inactive: -0.029	inactive: -0.064	inactive: -0.009	inactive: 0.064	inactive: -0.07	inactive: -0.184	inactive: 0.027	inactive: 0.051	inactive: -0.091	inactive: 0.016
ESYT1 isoform 2 (UniProt Q9BSJ8)	inactive: 0.042	inactive: 0.013	inactive: 0.08	inactive: 0.08	inactive: -0.094	inactive: 0.008	inactive: 0.053	inactive: -0.122	inactive: 0.089	inactive: -0.038
FAM114A2 (UniProt Q9NRY5)	inactive: 0	inactive: -0.131	inactive: -0.01	inactive: -0.036	inactive: -0.038	inactive: -0.093	inactive: 0.002	inactive: 0.035	inactive: -0.009	inactive: -0.02
FADS1, A0A0A0MR51	active: -0.31	inactive: -0.112	inactive: -0.004	inactive: 0.055	inactive: -0.007	inactive: -0.111	inactive: 0.049	inactive: 0.009	inactive: 0.044	inactive: -0.092

Looked up one by one from above:
Target	log2 fold change [1]	log2 fold change (filanesib)	log2 fold change (zotarolimus)	log2 fold change (idasanutlin)	log2 fold change (alisertib)	log2 fold change [2]	log2 fold change (gefitinib)	log2 fold change [3]	log2 fold change (lapatinib)	log2 fold change (pictilisib)
EXOSC9 isoform 2 (UniProt Q06265)	inactive: 0.004	inactive: 0.053	inactive: -0.006	inactive: -0.007	inactive: -0.045	inactive: -0.005	inactive: -0.022	inactive: 0.016	inactive: 0.008	inactive: 0.009
FAH (UniProt P16930)	inactive: -0.013	inactive: -0.018	inactive: 0.059	inactive: -0.03	inactive: -0.019	inactive: -0.025	inactive: -0.026	inactive: 0.093	inactive: -0.034	inactive: -0.028
